According to PMC12238530, “Dynamic SAS-6 phosphorylation aids centrosome duplication and elimination in C. elegans oogenesis” (EMBO Reports, 2025):
Results are given in words; binding and its absence hold for the method and conditions named. Binding seen in cells or lysates may run through a third protein. Tags and fused reporters may be left off the sequences shown.

The chains behind the UniProt entries cited, without tags or fusion partners. Where a name states a change or a piece, a line headed by the entry shows the natural chain unless it says otherwise.
UniProt O62479: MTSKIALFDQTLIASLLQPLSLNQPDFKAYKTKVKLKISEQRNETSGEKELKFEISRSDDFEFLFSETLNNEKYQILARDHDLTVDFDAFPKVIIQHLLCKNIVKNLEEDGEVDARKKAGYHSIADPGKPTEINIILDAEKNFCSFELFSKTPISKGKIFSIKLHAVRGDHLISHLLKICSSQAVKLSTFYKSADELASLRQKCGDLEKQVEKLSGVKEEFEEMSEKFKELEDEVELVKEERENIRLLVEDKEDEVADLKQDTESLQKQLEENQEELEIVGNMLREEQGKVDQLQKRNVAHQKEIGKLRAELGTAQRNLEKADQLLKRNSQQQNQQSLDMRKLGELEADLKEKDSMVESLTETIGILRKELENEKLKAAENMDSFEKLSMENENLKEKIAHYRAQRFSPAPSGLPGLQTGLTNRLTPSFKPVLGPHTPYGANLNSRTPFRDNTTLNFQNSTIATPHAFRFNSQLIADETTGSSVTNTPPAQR

Biological target: GST-SAS-6(∆C) (C. elegans) (UniProt O62479)
Assay: pull-down; GST fusion proteins immobilised on glutathione Sepharose 4B; precleared HEK293T lysate in P150 buffer, 4 °C, 4 h; immunoblot and CBB staining (Fig. 4C, 5G); only the target purified

binding: no binding
B1: SAS-4-GFP (protein, UniProt P34402 1-808)
chain: MASDENIGADGEQKPSRPFLRKGQGTARFRMPRNNKTSAGAPPTSELSSASSPSINVPRFSLSNALPNSARTVDSGISNEDETRPPTTASLPMDQPSLSSSPENRLNPAPSVAEEHGHSGQHAEEEEDNDTDEVSAMPSFVPDEPSTLVNSDHELSDDALKYKNAAAEFKAFERRMDSMRSASTITTSLATPSSCAPSNSSEPPTRSTPIMNDLGVGPNNHNWPSSMQELSGISLETPQARPLGSNRINQLVRSEAQTGISLLQHHERPTVTAPLRRNDMMNSSRQNPQNGNVQDENRPEHVYDQPIHVPGSSLDRQKLEIEIRRHRNLNIQLRDTIAHLDYAEESVHTTKRQLEEKISEVNNFKKELIEEFKKCKKGVEEEFEKKFEKIKEDYDELYEKLKRDQRDLERDQKILKKGTGERNKEFTETIATLRDKLRASETKNAQYRQDIRVRDEKLKKKDEEIEKLQKDGNRLKSTLQTLEKRVKQLRTEKERDDKEKEMFAKVAMNRKTSNPVPPVLNQSVPISITSNGPSRHPSSSSLTTFRKPSTSNRERGVSWADEPNEQSLEAVPQEFLMMPVKEMPGKFGKCTIYRDSLGETSKVTDTIANGLLFEYSNGDLRWVNRQNAVNIYISAVDKTVRIDLPTYNISIIHTFQRQVEVLRPGNNITLISIKRREVRTDLIYQNGMYKTEIFNRDGRYVTKDFSNQEVSRKYNPGTHTYRDNQCRYVLVTDYNDFELVEPEFRLRWYQGDPTGLNNQYILKIIGRPECSEKTLRLEVNLSTCEGTLETAEMIGDKRRKTTLFQWKK
